{
  "sequences": {"note": "Chains of the proteins cited; added tags and fusions are not shown.", "UniProt Q0JBA9, entry or part of it": "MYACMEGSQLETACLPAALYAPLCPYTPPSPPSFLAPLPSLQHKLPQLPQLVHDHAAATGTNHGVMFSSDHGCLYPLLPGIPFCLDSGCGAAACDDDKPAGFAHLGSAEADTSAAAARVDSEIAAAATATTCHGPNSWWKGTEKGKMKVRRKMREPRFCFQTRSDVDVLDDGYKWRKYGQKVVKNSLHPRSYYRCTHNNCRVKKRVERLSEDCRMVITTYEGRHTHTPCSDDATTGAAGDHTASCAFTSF"},
  "source": "paper PMC7819943",
  "about": "“Rice protein-binding microarrays: a tool to detect cis-acting elements near promoter regions in rice”",
  "note": "Some of the results follow.",
  "data": [
    {"molecular_target": "OsWRKY34 (Oryza sativa, UniProt Q0JBA9 1-250)", "experiment": "protein-binding microarray (RPBM); PBS, 2% BSA, 51.3 ng/ul salmon testes DNA, 50 uM zinc acetate, 200 nM TF, 25 C, 1 h; high values mean tight binding", "settings": "protein: recombinant; tags: N-terminal polyhistidine and DsRed monomer fusion (pET32a); label: CyDye5-dUTP incorporated in the synthesized complementary strand; 3' TTTTT single-stranded linker to array surface; dsDNA, one strand shown", "method_in_brief": "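The binding signal is fluorescence intensity per feature, in arbitrary units, read on an Axon 4000B scanner. Polyhistidine- and DsRed-tagged transcription factors (N-terminal fusions) from E. coli BL21-CodonPlus were purified on Ni–NTA and applied at 200 nM for 1 h at 25 °C to a double-stranded, BSA-blocked custom Agilent array in buffer with 50 µM zinc acetate.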", "values": [
      {"sequence": "AGTGTTTTTACTTTTTTTTTTCTAAGTTGTCTTTTCTTCCCGGAGTCACCTAGTGCAG", "binding signal": "12400 fluorescence intensity (a.u.)"},
      {"sequence": "CACGCTTCGTCGTCGGATCGGGACGCCTTGCTGCCTCTGCCGGAGTCACCTAGTGCAG", "binding signal": "8170 fluorescence intensity (a.u.)"},
      {"sequence": "CTGGGGTTGGCCTGGGCTGATATATGTTTGGCGCTCAAAACGGAGTCACCTAGTGCAG", "binding signal": "11100 fluorescence intensity (a.u.)"},
      {"sequence": "GGCCCCATGTACCTTTTTTTAAACAAATTTGCTGACTAGGCGGAGTCACCTAGTGCAG", "binding signal": "8760 fluorescence intensity (a.u.)"},
      {"sequence": "CGGAGGTCTTGGCGACCACCTCTCGCCACCTTCGCCTCCACGGAGTCACCTAGTGCAG", "binding signal": "8560 fluorescence intensity (a.u.)"},
      {"sequence": "TATTCTGAAGTCACTCGTACATTGCAAAGCACACTACTCCCGGAGTCACCTAGTGCAG", "binding signal": "8240 fluorescence intensity (a.u.)"},
      {"sequence": "CCCTCGCCGCCGCCCCGCCTCTTCCTCGCGCCGCCACCGCCGGAGTCACCTAGTGCAG", "binding signal": "11100 fluorescence intensity (a.u.)"},
      {"sequence": "TCCACTTCCAACATCTACTATCTTTTCTCACGCTTTTTCCCGGAGTCACCTAGTGCAG", "binding signal": "8630 fluorescence intensity (a.u.)"},
      {"sequence": "TTCTGTATTCAAACACCACCTTACAACTGTTGGAGTGCTGCGGAGTCACCTAGTGCAG", "binding signal": "8310 fluorescence intensity (a.u.)"},
      {"sequence": "TGATGAGATTTGGTGGTGTGTTTTTTTTTGGCAATCATCCCGGAGTCACCTAGTGCAG", "binding signal": "9730 fluorescence intensity (a.u.)"},
      {"sequence": "GCTATATGGAGTGTTAGCTGATGAGTAATGAATGTACAAACGGAGTCACCTAGTGCAG", "binding signal": "8450 fluorescence intensity (a.u.)"},
      {"sequence": "GTATTTCTATTACCTGCTGTATAACTTGCACATCCTTTTTCGGAGTCACCTAGTGCAG", "binding signal": "10700 fluorescence intensity (a.u.)"},
      {"sequence": "CAGTTCTTTTCATCCTTTTCCAAGGCGCGCGCGCGGTCACCGGAGTCACCTAGTGCAG", "binding signal": "8200 fluorescence intensity (a.u.)"},
      {"sequence": "CGCACACCACCGCCTACGTAGTAGCTCTGATCGGCGCTGTCGGAGTCACCTAGTGCAG", "binding signal": "8250 fluorescence intensity (a.u.)"},
      {"sequence": "TTTCAATTGTCTTCAGAATGTGCTCTTTAAACTTAATTTTCGGAGTCACCTAGTGCAG", "binding signal": "8030 fluorescence intensity (a.u.)"},
      {"sequence": "CAGTAGGCAGGTTAGGTCAGGTCAGGTACGGACGCATCCCCGGAGTCACCTAGTGCAG", "binding signal": "8250 fluorescence intensity (a.u.)"},
      {"sequence": "ATTTGGTTTTATATGTTTGTGGAGTGATATATTTCGTATTCGGAGTCACCTAGTGCAG", "binding signal": "8350 fluorescence intensity (a.u.)"},
      {"sequence": "ACGGGTTAGATCTATTTTCGCAAAACTTGCCATGGATGTACGGAGTCACCTAGTGCAG", "binding signal": "9120 fluorescence intensity (a.u.)"},
      {"sequence": "CACTTCCACGACCATTCTCCTGGGGCTTTCCATCATGAAGCGGAGTCACCTAGTGCAG", "binding signal": "8870 fluorescence intensity (a.u.)"},
      {"sequence": "CGCCAATCCAGCTTTTCTTCTCCCTGCACTCACACACATCCGGAGTCACCTAGTGCAG", "binding signal": "9530 fluorescence intensity (a.u.)"},
      {"sequence": "TGGGTGGGGATGAGTTCTTGATTTGCCGCCGCCACCGCACCGGAGTCACCTAGTGCAG", "binding signal": "13900 fluorescence intensity (a.u.)"},
      {"sequence": "TTCATTTTTACTAAAATTTTAACAGTCTTCTGAATTTTCTCGGAGTCACCTAGTGCAG", "binding signal": "8660 fluorescence intensity (a.u.)"},
      {"sequence": "TTGGACACAAGGGGTGGTGGTGCAGTTGGCTAGCGCGTAGCGGAGTCACCTAGTGCAG", "binding signal": "13100 fluorescence intensity (a.u.)"},
      {"sequence": "CCCAGCTAGTTATTCTTCATTTAATATATAATCGATCACTCGGAGTCACCTAGTGCAG", "binding signal": "8500 fluorescence intensity (a.u.)"},
      {"sequence": "GTATGCCAACATGTGCTAATTTCTCCGACGAAATGTTTCACGGAGTCACCTAGTGCAG", "binding signal": "9660 fluorescence intensity (a.u.)"},
      {"sequence": "ACTCCATCTGTTTCACGACGTTTTGAGTTTGGTCAAAGTCCGGAGTCACCTAGTGCAG", "binding signal": "11400 fluorescence intensity (a.u.)"},
      {"sequence": "AGTATCCAATTACACGGTGTAAAGCTCGCTACAGTTCGATCGGAGTCACCTAGTGCAG", "binding signal": "8480 fluorescence intensity (a.u.)"},
      {"sequence": "GGGTGCTCTCGATTATTTTCCCCGTCAGTTGACAGGCAGACGGAGTCACCTAGTGCAG", "binding signal": "9030 fluorescence intensity (a.u.)"},
      {"sequence": "GCGACATTCTCTCCGACGAAATACGGCTTCCGCCCAATCCCGGAGTCACCTAGTGCAG", "binding signal": "8050 fluorescence intensity (a.u.)"},
      {"sequence": "GCCATGAAGCAACCACGACCGCGACTATTCAACTCTCCAACGGAGTCACCTAGTGCAG", "binding signal": "8530 fluorescence intensity (a.u.)"},
      {"sequence": "CGGCACCACCACGCCGCTCTTCTCACTCAGGTCCCGCATGCGGAGTCACCTAGTGCAG", "binding signal": "9210 fluorescence intensity (a.u.)"},
      {"sequence": "CTGCTGGGCCTCTTCTTCGTGTTGACTGTGATCCGAGTATCGGAGTCACCTAGTGCAG", "binding signal": "11700 fluorescence intensity (a.u.)"},
      {"sequence": "TACTAGTACTGTGAAGTTTCTAGTTTCTTGTTTTCAGTTTCGGAGTCACCTAGTGCAG", "binding signal": "8320 fluorescence intensity (a.u.)"},
      {"sequence": "TTGCCGTAGCCCAACCCCACGCTATATGGTCCCATGCACACGGAGTCACCTAGTGCAG", "binding signal": "8930 fluorescence intensity (a.u.)"},
      {"sequence": "AGTAGTGGAGTACATTCCTGTTCGTGGCGCCATATATTATCGGAGTCACCTAGTGCAG", "binding signal": "8260 fluorescence intensity (a.u.)"},
      {"sequence": "CCTTCGCCTTCTTGGGTCCGCTTCTTTCCTGTGGTGGGCGCGGAGTCACCTAGTGCAG", "binding signal": "8750 fluorescence intensity (a.u.)"},
      {"sequence": "ATTCTCCCATCTATATCCCTCTATCTCTCTCTCAGTTTTGCGGAGTCACCTAGTGCAG", "binding signal": "8280 fluorescence intensity (a.u.)"},
      {"sequence": "ACAAGGTGATCGGGGTAGGGGTGTAGTTACCTTCTCGTAGCGGAGTCACCTAGTGCAG", "binding signal": "10100 fluorescence intensity (a.u.)"},
      {"sequence": "CTCACTCACTTCACTCTCTCGTTCTCTCTCTCCCATCCTGCGGAGTCACCTAGTGCAG", "binding signal": "9910 fluorescence intensity (a.u.)"},
      {"sequence": "CCTCTCTTTTCGCTTATACTTATGCTTATCACTTAAAATTCGGAGTCACCTAGTGCAG", "binding signal": "8360 fluorescence intensity (a.u.)"},
      {"sequence": "TAGATCAATACTGCCTAACGAACTTTTTTTTTTTTTTACGCGGAGTCACCTAGTGCAG", "binding signal": "16400 fluorescence intensity (a.u.)"},
      {"sequence": "TTTTTAAATATGTTTGACCGTTTGTCTTATTCAAAAAATTCGGAGTCACCTAGTGCAG", "binding signal": "8690 fluorescence intensity (a.u.)"}
    ]}
  ]
}
